Laboratory results: patent publication EP0639202B1, “STABLE POLYPEPTIDE COMPOSITION” (COR THERAPEUTICS, INC., priority 1992, dated 1993)
Part of at least one peptide drawing is inferred or uncertain, most often the ends.

Tested on: M21 melanoma cells
Assay: Cell adhesion assay: 35S-methionine labelled cells on vitronectin-coated plates
Format: cell-based
Method: M21 melanoma cells were labelled with ^35S-methionine, and then added to vitronectin-coated plates in the presence of the indicated concentrations of purified snake venom peptides. Cell attachment was measured by solubilizing the cells remaining after an incubation and wash, as previously describe.

N=C(N)NCCC[C@H](N)C(=O)NCC(=O)N[C@@H](CC(=O)O)C(=O)N[C@@H](CO)C(=O)O [RGDS, reference compound]
effect on cell adhesion / attachment to vitronectin (in words): potent inhibitors of cell attachment
